Test results: article doi:10.1101/2025.03.10.641328
These are yes or no findings as the source states them, for the method shown. Binding seen in cells or lysates may run through a third protein. Some binding calls cover weakened binding; strength is not graded here. Tags and fused reporters may be left off the sequences shown.

Experiments:
[1] = target: T1, GFP-tagged gigaxonin Kelch 3 deletion mutant (human) (UniProt Q9H2C0); assay: co-IP; GFP-tagged gigaxonin captured on TurboGFP-Trap magnetic agarose beads from Triton X-100 soluble lysate of transfected cells, overnight at 4°C; 20% of the IP eluted in SDS sample buffer, immunoblot for NUDCD3
T1 sequence: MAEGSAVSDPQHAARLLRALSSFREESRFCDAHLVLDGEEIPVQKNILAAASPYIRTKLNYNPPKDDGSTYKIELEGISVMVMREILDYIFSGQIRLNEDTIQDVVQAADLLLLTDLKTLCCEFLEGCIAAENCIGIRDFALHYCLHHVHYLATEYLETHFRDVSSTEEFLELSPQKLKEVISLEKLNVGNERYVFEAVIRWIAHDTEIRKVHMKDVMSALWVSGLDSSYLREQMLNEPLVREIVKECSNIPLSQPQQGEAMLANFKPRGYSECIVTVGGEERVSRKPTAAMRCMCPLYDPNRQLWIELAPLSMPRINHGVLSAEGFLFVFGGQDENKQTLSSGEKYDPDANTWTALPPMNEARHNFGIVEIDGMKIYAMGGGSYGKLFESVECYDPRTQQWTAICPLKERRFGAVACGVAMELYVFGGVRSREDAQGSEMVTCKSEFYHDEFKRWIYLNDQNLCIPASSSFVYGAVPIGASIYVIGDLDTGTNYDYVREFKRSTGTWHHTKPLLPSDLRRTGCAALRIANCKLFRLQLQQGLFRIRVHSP

[2] = target: T2, GFP-tagged wild type gigaxonin (human) (UniProt Q9H2C0); assay: as above
T2 sequence: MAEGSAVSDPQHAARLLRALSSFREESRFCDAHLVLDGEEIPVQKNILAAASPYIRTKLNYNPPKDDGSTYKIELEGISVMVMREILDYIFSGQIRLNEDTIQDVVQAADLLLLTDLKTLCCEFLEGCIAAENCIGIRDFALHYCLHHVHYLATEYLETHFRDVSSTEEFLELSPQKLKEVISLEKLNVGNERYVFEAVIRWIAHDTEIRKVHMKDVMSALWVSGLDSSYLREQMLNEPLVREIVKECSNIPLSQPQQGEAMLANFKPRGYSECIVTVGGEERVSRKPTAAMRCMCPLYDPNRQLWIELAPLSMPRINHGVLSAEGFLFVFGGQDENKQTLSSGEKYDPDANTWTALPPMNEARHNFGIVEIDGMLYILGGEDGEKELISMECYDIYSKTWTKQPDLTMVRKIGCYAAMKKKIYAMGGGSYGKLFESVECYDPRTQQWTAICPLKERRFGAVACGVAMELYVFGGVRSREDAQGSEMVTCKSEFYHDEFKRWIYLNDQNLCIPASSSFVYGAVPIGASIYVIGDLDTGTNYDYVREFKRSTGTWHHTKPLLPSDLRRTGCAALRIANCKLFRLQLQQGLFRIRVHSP

B1: NudC domain-containing protein 3 (protein, UniProt Q8IVD9 1-361)
chain: METGAAELYDQALLGILQHVGNVQDFLRVLFGFLYRKTDFYRLLRHPSDRMGFPPGAAQALVLQVFKTFDHMARQDDEKRRQELEEKIRRKEEEEAKTVSAAAAEKEPVPVPVQEIEIDSTTELDGHQEVEKVQPPGPVKEMAHGSQEAEAPGAVAGAAEVPREPPILPRIQEQFQKNPDSYNGAVRENYTWSQDYTDLEVRVPVPKHVVKGKQVSVALSSSSIRVAMLEENGERVLMEGKLTHKINTESSLWSLEPGKCVLVNLSKVGEYWWNAILEGEEPIDIDKINKERSMATVDEEEQAVLDRLTFDYHQKLQGKPQSHELKVHEMLKKGWDAEGSPFRGQRFDPAMFNISPGAVQF
binding [1]: no binding | binding [2]: binds
